Data as given in PubChem BioAssay AID926 (National Center for Advancing Translational Sciences (NCATS), 2007).
Screen size: about 73,000 compounds; about 350 (0.48%) were called active. Another 17% or so got no clear call; they are omitted. Calls come from the whole dose curve; as a rule, active = well fitted activation curve with a large enough effect in the main read-out, with a control signal flat (not every such curve was filed as active); inconclusive = small, poorly fitted or top-dose-only effect, or a change in a side signal; inactive = no such curve, though single readings can be large or run the other way; % of control where 0% means no effect. Only a part is listed here, and it is no random draw. Entries without a call were filed so in the source.

The chains behind the UniProt entries cited, without tags or fusion partners.
UniProt P16473, whole entry, looked up: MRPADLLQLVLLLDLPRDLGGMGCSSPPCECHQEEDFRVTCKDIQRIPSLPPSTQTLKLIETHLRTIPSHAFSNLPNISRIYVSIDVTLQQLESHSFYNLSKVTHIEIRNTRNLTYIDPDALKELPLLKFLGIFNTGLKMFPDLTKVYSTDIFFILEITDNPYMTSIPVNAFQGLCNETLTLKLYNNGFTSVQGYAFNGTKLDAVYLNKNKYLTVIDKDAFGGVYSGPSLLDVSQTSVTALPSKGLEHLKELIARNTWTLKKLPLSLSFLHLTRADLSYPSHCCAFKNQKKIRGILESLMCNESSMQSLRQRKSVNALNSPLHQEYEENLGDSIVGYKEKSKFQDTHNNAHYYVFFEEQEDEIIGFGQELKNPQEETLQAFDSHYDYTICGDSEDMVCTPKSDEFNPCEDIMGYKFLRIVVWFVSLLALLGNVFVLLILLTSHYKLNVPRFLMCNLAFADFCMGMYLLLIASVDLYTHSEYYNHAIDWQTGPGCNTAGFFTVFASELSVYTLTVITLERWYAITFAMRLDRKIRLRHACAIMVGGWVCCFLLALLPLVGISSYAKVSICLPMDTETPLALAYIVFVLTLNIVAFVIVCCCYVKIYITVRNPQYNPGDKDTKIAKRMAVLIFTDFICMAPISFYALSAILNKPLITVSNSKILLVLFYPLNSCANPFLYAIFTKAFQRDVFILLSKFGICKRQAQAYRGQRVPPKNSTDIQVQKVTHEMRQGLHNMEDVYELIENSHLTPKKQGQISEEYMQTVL

The compounds below were run against Thyrotropin receptor (Homo sapiens) (UniProt P16473) (assay: qHTS Assay for Agonists of the Thyroid Stimulating Hormone Receptor). Settings: HEK293-CNG-TSHR cells (CNG channel as cAMP sensor), membrane potential dye, cAMP; at 57.1 µM (top of the series).
Source text: NIH Chemical Genomics Center [NCGC]
NIH Molecular Libraries Screening Centers Network [MLSCN]
PI Name: Dr. Marvin Gershengorn, NIH
Thyroid Stimulating Hormone Receptor
TSH is an alpha/beta heterodimeric glycoprotein hormone secreted from the anterior pituitary gland which belongs to the glycoprotein hormone family. The actions of TSH are mediated by a seven-transmembrane receptor, which upon TSH binding couples preferentially to the G-alpha (s) protein (Gs), resulting in activation of adenylate cyclase and increase in cyclic adenosine 3', 5' monophosphate (cAMP). The TSH receptor (THSR) is mainly expressed in thyroid follicular cells and regulates their growth and function. Recombinant TSH is used to activate TSHR in patients with thyroid cancer receiving thyroid hormone suppression therapy and to screen for residual tumor after surgery, but it is expensive and must be administered intramuscularly. An orally active small molecule TSHR agonist would serve as an invaluable research tool for studying TSHR pharmacology and physiology, and would have multiple advantages in therapeutic settings. However, no selective small molecule agonist of the TSH receptor exists, and no small molecule screen for TSHR agonists has ever been reported.
This cell based assay utilized a cyclic nucleotide gated ion channel (CNG) as a biosensor for cAMP induction by potential TSHR agonists.
HEK 293 cells stably expressing the TSHR as well as a modified CNG were purchased from BD biosciences. Stimulation of cAMP production causes the CNG to open and subsequent membrane depolarization to occur. A fluorescent membrane potential dye (BD biosciences) was utilized to detect cAMP stimulation in TSHR cells.
The cells were maintained in DMEM medium (Invitrogen) containing 10 % FBS (Hyclone), 100 units/ml Penicillin, 100 ug/ml Streptomycin (Invitrogen), and 250 ug/ml Geneticin (Invitrogen) and 1 ug/ml Puromycin (Invitrogen) at 37C in 5% CO2. HEK 293 cells expressing CNG but without TSHR (parental cells) were used in concert to control for compounds signaling through endogenous receptors and targets of HEK 293 cells.
NCGC Assay Protocol Summary:
High Throughput Screening. Freshly passaged cells (TSHR or parental) were dispensed into 1536-well assay plates at 4 ul/well in DMEM containing phenol red (Invitrogen), 10% FCS (Hyclone), and 100 units/ml Penicillin, 100 ug/ml Streptomycin (Invitrogen) and incubated at 37 C with 5% CO2 for 20 to 36 hrs before the robotic screening. The screen was initiated by addition of 4 ul/well membrane potential dye containing 100 uM RO 20-1724 (Sigma Aldrich), followed by 60 min incubation at room temperature to allow for dye equilibration across the cell membrane. 23 nl/well compound or control was then added to the assay plates, which were incubated for additional 30 min before reading a Envision fluorescence plate reader (Perkin Elmer) in bottom-read mode for fluorescence intensity (emission at 590 nm).
Keywords: Thyroid-stimulating hormone TSH, TSHR, TSHR agonist, quantitative high throughput screening, qHTS, HTS, probe identification, CNG, cAMP, cyclic nucleotide gated ion channel PubChem
Compound `COc1cccc(-c2cncnc2Nc2ccccc2)c1` has an activation of 30.3%. In the case of `CCC(O)OC(O)CC` (configuration not stated), the activation is reported as inactive: 2.29%. For `C[C@@H](C(=O)N[C@@H](CO)Cc1ccccc1)[C@@H]1C[C@@]1(C)[C@@H](NC(=O)OCc1ccccc1)c1ccccc1`, the activation was inactive: 17.6%. `CCOC(=O)C1CCN(c2c(Nc3ccc4c(c3)OCCO4)c(=O)c2=O)CC1` was tested, and the activation was inactive: -38.5%. In the case of `CCCN1C(=O)/C(=C2\SC(N3CCCCC3)=NC2=O)c2ccccc21`, the activation is reported as inactive: -63.2%. `CCc1nnc(NS(=O)(=O)c2ccc(NC(=O)OC)cc2)s1` showed an activation of 30.8%. `CCN1CCCC1Cn1c(-c2ccccc2)nc2c(N3CCOCC3)nc(C)nc21` (configuration not stated) was tested, and the activation was 45.1%.
